Here are results for 107 sequences from PubChem BioAssay AID1508600 (Functional Genomics Laboratory (NCATS/FGL), 2020).

The campaign covered roughly 53,000 sequences. About 3,700 (7%) were called active.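 Rule for the calls: active = gene knockdowns whose robust z-score for IL-1 alpha signal is at least 2 or at most -2, so actives lie on both sides; inactive = the rest.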 The list shows a part of the results.

A short description of the experiment: Components of the Cytosolic LPS Sensing Pathway: Gene Identification via Genome-wide siRNA Screen.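 Note: robust z of the log signal after scaling to non-targeting control siRNA wells of the plate.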 Conditions: RAW264.7 macrophages, IL-1a HTRF, actives lie on both sides, screened at 100 nM (by protocol), cells primed 5 h with Pam3CSK4 first. In a few lines: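 Cells (RAW264.7, 1×10^4 per well) were transfected with siRNA at 100 nM and cultured 48h at 37 degrees C. Pam3CSK4 was added for 5 hours; LipidA transfection followed for 24 hour. IL-1a was then measured by HTRF.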
With GGAGAGAGAAUUUCACCUCTT against Dcaf12, the z-score is inactive: -0.572.

As for GCUUUAAGGCUUACACAGATT against Klrk1, the z-score is inactive: 0.414. Under GCUCAAAAUAACAAGAAGGTT against Ercc5 stands inactive: -0.201; under GGCUCUUAUUGCCCUAACCTT against Hypk, inactive: -1.92; under GGUAUGAGUGAAGAAAAGATT against Ifi205, inactive: -1.36. Under GCUCAUACUCCGAAACCUGTT against Etv1 stands inactive: -0.0309; under GCUUGUACCUGUGGAUCGATT against Wif1, inactive: 0.827; under GCAAGGGCUUUAACUAAGUTT against Wnt2, inactive: 0.589. To GGCUUUGGAAUAUACCGAGTT against Ttc23 belongs inactive: -0.0628; to GGAAAAUUCUUCCAACAUCTT against Fsd1l, inactive: -0.249; to GGACAUCUCCUCAAUCAUCTT against Gdf10, inactive: -0.148. Turning to GGAGGAAGAAGAUGAGAUATT against Il4ra, the z-score is inactive: -1.39. Under CCGCAUAUUUGGAAUACGATT against Mfsd1 stands inactive: -0.512; under CCCACUUGUCUACAGCCUATT against Olfr1505, active: -2.65. Under GCAGUCUCCAAUUGAGAUUTT against Car13 stands inactive: -0.0313; under GGUGUAAGGUUGUUUGGUUTT against Adm, inactive: 0.427. To CGAAGGUAGCCAGUCACAATT against Ppib belongs inactive: -0.518; to GGAGAAGCUGCCUUUCAUGTT against Erich5, inactive: 0.55; to GGCAAUUAAAGAAGCCCUCTT against Cyp2c40, inactive: 0.514. For GGACAGAGCCUAGAAAACUTT against Mpdu1, the z-score is inactive: -1.15. Under CGUACAUGUACCAAAAUAUTT against Angpt1 stands inactive: -0.293. To GCGGAUGCUCAGUGAUGGGTT against Tcp10a belongs inactive: 0.131; to GGCUGGUAAUUCACUUAAUTT against Kcnk2, active: -2.54. Under GCGGCUUUACAAGGAUGACTT against Elob stands active: 2; under GGUGAAUGGCAUGACCAUATT against Asb9, inactive: 0.49.

Take CGAGAAAACACGGACCUCATT against Slc16a6: the z-score was inactive: -0.917. To CCAACCAGACUUAUUUAAUTT against Zfp37 belongs inactive: 1.61; to GGCCUCUUACAAAGUGAGATT against Supt7l, inactive: -0.265.

As to GGAGGAUAUACACAACAGGTT against Tceal9, the z-score was inactive: 1.49. To GGUUACCUCAGUUUAAAGATT against Gbf1 belongs inactive: 0.69. For CCUCAAAGUGGAUCAACUGTT against D17H6S53E, the z-score was inactive: 0.415. Under CCUAGUUUUGAACAUCAGATT against Il13ra1 stands inactive: 0.157; under GCGUAAGGAAUUGUCUAACTT against Hoxd12, active: 4.05. Under GGCUUGACUGCUAUUUUAGTT against Csn1s1 stands inactive: 0.711; under CCGUAAUUUACCAAAGAGATT against Mcmbp, inactive: -0.0618; under “GGAGGUAAAAAGCAAGACATT against 4930548H24Rik”, inactive: 1.9.

Consider CGAAAAUACGUCAAAGCUCTT against Abca8b, for which the z-score is inactive: -0.656. Under GUCAUUGCACCAAAAAUGUTT against Olfr1052 stands inactive: -1.87; under GGAGGGUGUGUGCUAAUGATT against Hnf1b, inactive: 0.765. To GGCUCAAAUACAGGAAAUUTT against Tmem45b belongs inactive: 0.498; to GGCAGUCAUUACCUAUCAGTT against Atp7b, inactive: -0.271. Under CCGAAGUCAACUAAACUUATT against Rmc1 stands inactive: 0.732; under GGUUGUCUGCUAAACCUGCTT against Hmgn2, inactive: -0.699; under CGUGCGAGACAGCUUUUAATT against Gtf2h3, inactive: 1.77. On to GGGAAAAUCCAGCCAUAGUTT against Ubqlnl, for which the z-score is inactive: 0.559. To GGAUGGUCACGGAAGUUCUTT against Lmf2 belongs active: 2.36; to GGAAAACCCUGGUACUGAUTT against Mpp2, inactive: -1.28. Take GGGCUGUGAACACAAGUGUTT against Megf6: the z-score was active: 2.02. For GGUGGGAAAUUCGUAGACUTT against Pdcd1, the z-score is inactive: -0.4. As for GGAAACCUGCAUCCUAUGATT against Olfr195, the z-score is inactive: -0.196. To CGACAUUUGUGUUAACCAUTT against Gprc5c belongs inactive: -0.483. GGAGGUUUUACUCAAACAUTT against Sec14l2: the z-score is inactive: 1.35. Under GCUUGAUCAGGAUAUUUUUTT against Pwwp3b stands inactive: -0.058; under GCAAUAGUUUACUUGAAGATT against Rpgrip1l, inactive: -0.505; under “CCUGUUUUCUAUUAUUGCUTT against 9330175E14Rik”, inactive: -1.53. Take GGUGAACAAAGGAAAGAAUTT against Trpv2: the z-score is inactive: -0.405. Under GCUUGUUCGAGCAAGCAAGTT against Ccnt1 stands inactive: -0.582; under GGAAAAGAGCUCGUCUCAGTT against Il15, inactive: -1.45. On to GGUCAAUGAACAGCACCGGTT against Igfbp2, for which the z-score is inactive: 0.723. To CCUUUCUCUAAGGAGUUAUTT against Zfp945 belongs inactive: 0.3; to GGCCAUCAAAGAAACUAGCTT against Tas2r139, inactive: 1.94; to GGAGUUUCAAAGUGCGAGUTT against Rin1, inactive: -0.298. Under GGUGUUGUAAAAUUCCUCATT against Ncoa7 stands active: -2.08. Regarding GCACCUUAAAAAUGAAGAUTT against Esyt2, the z-score is inactive: -0.423.

Regarding GGCCGUUAUUAAAUUCAUATT against Twsg1, the z-score was inactive: -0.609. To GCAUUGGGCAAAUGUCUGGTT against Olfr933 belongs inactive: 0.2. With AUAGUGGAACCCUUUGUACTT against Olfr1195, the z-score is inactive: -0.832.

For the sequence GGAAUACGACAGAACUCCATT against Extl1, the z-score was inactive: 0.218. To GGGAACACAAAACCAUUUCTT against Olfr1299 belongs inactive: 0.183. To GGCUCAAAUUCGAAAACACTT against Zfp235 belongs inactive: 0.675. Turning to GGGUGAUAGCUCCUAUGUGTT against Nalcn, the z-score was inactive: -1.07. To GCUUAGCCAUCAAUGAGGATT against Cog6 belongs inactive: 0.251; to CCAUUAAAAACCCAGAGGATT against Lyve1, inactive: 0.0705; to CCGAGGACUACAAGGUAUATT against Trappc2l, inactive: -1.61. Under GGCUGGAGAGGAAAUGAAUTT against Mrpl51 stands inactive: 0.185. To GGUGGUUCGCACAGAAAGUTT against Slc25a38 belongs inactive: -1.47; to GCAGAGUCACCUUACUAACTT against Fam122b, inactive: -0.0407.

In the case of GGAACUAUAUACGAUGAUGTT against Usp8, the z-score is inactive: -0.316. To GGAGAACAAAGAUUUCGUGTT against Lhfpl4 belongs inactive: -0.897; to GGGAGCAUUGGCCAGAGUUTT against Olfr20, inactive: 0.877. For GGUGAUUCGAAAGAACCUGTT against Sh3pxd2a, the z-score was inactive: -0.771. To GCUCUGUCGUGAAGAAUGCTT against F11 belongs inactive: 0.535. Take GGAACUUUUCAUCCUGAAGTT against Fgl1: the z-score is inactive: 0.0919. Under GCCCAUUGACGUAAUUCUCTT against Vmn1r198 stands inactive: -1.24; under GGCCCUAAACAAGUUAUCUTT against BB014433, inactive: -0.544; under GGUGGUCCAGAAUUUUGCATT against Cotl1, inactive: 0.386. Under GGAAGACUUCGUGUUGACATT against Proz stands inactive: 0.223; under CCAGUAUCUAAUUGGAAUATT against Paqr8, active: 2.07. Under GGCUCAAAGUUUUCAGAGATT against Kctd14 stands inactive: -0.0155; under “GGCCUGGAGCUUUUAUAUUTT against 3110053B16Rik”, inactive: -0.681; under “CCUGUUUCUAGAGCUGGAGTT against A630001O12Rik”, inactive: 0.000246. Consider CAUUUACAUUCUUAUUACCTT against Olfr473, for which the z-score was inactive: -1.43.

On to CCGAGUGUAAACUUCAAAUTT against Vash2, for which the z-score was inactive: 0.212. Under CGACGAAUCUCACACGCUGTT against H2-T23 stands inactive: 1.2. Under GGAGAAAAAAUACUUGAUGTT against Ppm1d stands inactive: 1.48; under GGUGACACCCAGAAUGAGCTT against Htatsf1, inactive: 1.81.

As for CGUACUUCAGCGAUUUAAATT against Exoc2, the z-score is inactive: 0.555. To GCGACUUCGGAAGAUCUAUTT against Srl belongs inactive: 1.32; to GGACUACAUCAACCUGGAUTT against Mlf2, inactive: 0.25.

Regarding GGCCUUGCUUUCAUAAAGUTT against Mrpl49, the z-score is inactive: 0.348. To GGAUCAAUGAAAAUGAGAATT against Fzr1 belongs inactive: -0.0554; to GGACAUGAAACUCUGCACCTT against Drd2, inactive: 1.27. To GGACGUGACUCUCAUCAUCTT against Atp2b3 belongs inactive: 0.929. UUUUAGGUUCCCUGGAAUGTT against Mrgprb5: the z-score is inactive: 0.678. To GCUGAAAAAGUGGAAAUCGTT against Psma4 belongs inactive: -0.794; to GGCCAGAGGUGCAAUAUUGTT against Notch2, inactive: 1.19. With GGAUGUGGAGCAAGUGAAGTT against Stx1b, the z-score is active: -2.05.
